# The shares of active, inactive and inconclusive entries below differ from those in the screen. For part of these data: A potency beside an inconclusive call is a rough fit, not a confirmed value. Active and inactive are the calls of the source. Unless noted, calls come from the whole dose curve; as a rule, active = well fitted curve in the direction sought with a large enough effect; inconclusive = small, poorly fitted or top-dose-only effect, or another doubt; inactive = no such curve, though single readings can be large; an effect the other way counts as inactive or inconclusive.
# How the values were obtained:
# [1] = Quantitative High-Throughput drug screen in 47 multiple myeloma cell lines against the NCATS MIPE library collection: VP6_DJ cell viability assay (AID 1919867); note: nearly all actives have a fitted effect of over 40% in size
# Summary of the method: (§1)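 MIPE 4.0 approved/investigational drugs; 500 cells/well; 48 h 37 °C humidified 5% CO2; CTG luminescence readout; DMSO = 100%, media = 0% viability.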
# [2] = Quantitative High-Throughput drug screen in 47 multiple myeloma cell lines against the NCATS MIPE library collection: UTMC2_PLB cell viability assay (AID 1919868); conditions: CellTiter-Glo ATP luminescence, 48 h; series mostly up to 45.8 µM; note: nearly all actives have a fitted effect of over 55% in size
# Summary of the method: as §1
# [3] = Quantitative High-Throughput drug screen in 47 multiple myeloma cell lines against the NCATS MIPE library collection: PE2_PLB cell viability assay (AID 1919869); conditions: PE2_PLB myeloma cells viability, ATP luminescence, 48 h; viability (% of control): at 45.8 µM (top of the series); note: nearly all actives have a fitted effect of over 35% in size
# Summary of the method: as §1
# [4] = Quantitative High-Throughput drug screen in 47 multiple myeloma cell lines against the NCATS MIPE library collection: PCM6_Riken cell viability assay (AID 1919870); note: nearly all actives have a fitted effect of over 30% in size
# Summary of the method: as §1
# [5] = Quantitative High-Throughput drug screen in 47 multiple myeloma cell lines against the NCATS MIPE library collection: RPMI8226_ATCC cell viability assay (AID 1919871); conditions: RPMI8226 myeloma viability, CellTiter-Glo ATP luminescence, 48 h; viability (% of control): at 45.8 µM (top of the series); note: nearly all actives have a fitted effect of over 30% in size
# Summary of the method: as §1
# [6] = Quantitative High-Throughput drug screen in 47 multiple myeloma cell lines against the NCATS MIPE library collection: KMS28BM_JCRB cell viability assay (AID 1919874); conditions: CellTiter-Glo ATP, 48 h; series mostly up to 45.8 µM; note: nearly all actives have a fitted effect of over 35% in size
# Summary of the method: as §1
# [7] = qHTS for identification of novel therapeutic agents for treatment of microphthalmiaassociated transcription factor (MiT) renal cell carcinoma (RCC) (AID 1963991; calls by dose curve); conditions: TFE3-RCC UOK109 viability, CellTiter-Glo, 48 h; active = Z-AUC below -0.8 in all three lines
# Summary of the method: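 Three TFE3-fusion RCC cell lines (UOK109, UOK124, UOK145), 500 cells/well, were exposed to the 1912-compound MIPE 4.0 library for 48 hours at 37 C. Viability was read by CellTiter-Glo luminescence, normalised to DMSO (100%) and empty wells (0%), with 11-concentration curve fits.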
# [8] = Quantitative High-Throughput drug screen in 47 multiple myeloma cell lines against the NCATS MIPE library collection: OPM2_DSMZ cell viability assay (AID 1919872); note: nearly all actives have a fitted effect of over 30% in size
# Summary of the method: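 We plated 500 myeloma cells per well, pinned in MIPE 4.0 compounds, and incubated for 48 hours at 37C. ATP was then quantified with CellTiter-Glo, with DMSO and media-only wells defining 100% and 0%.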
# [9] = Quantitative High-Throughput drug screen in 47 multiple myeloma cell lines against the NCATS MIPE library collection: KMS11_JCRBsus cell viability assay (AID 1919873); note: nearly all actives have a fitted effect of over 50% in size
# Summary of the method: as §1
# 7G8 = assay: qHTS profiling for inhibitors of Plasmodium falciparum proliferation (AID 504749); note: nearly all actives have a fitted effect of over 60% in size; conditions: P. falciparum in erythrocytes, SYBR Green DNA, 72 h; series mostly up to 28.7 µM
# Summary of the method: (§2)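 Parasite proliferation within erythrocytes, 72 h exposure. Endpoint: SYBR Green I fluorescence after overnight lysis at room temperature. Controls: 0.29 uM artemisinin, DMSO.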
# 3D7 = assay: as above; conditions: P. falciparum in erythrocytes, SYBR Green DNA, 72 h; series mostly up to 28.7 µM
# Summary of the method: as §2
# [10] = as above; conditions: P. falciparum in erythrocytes, SYBR Green DNA, 72 h; Potency: parasite line B unless noted; series mostly up to 28.7 µM
# Summary of the method: as §2
# Potency is the fitted concentration of half-maximal effect.
SMILES,Potency [1],Potency [2],Potency [3],Potency [4],Potency [5],Potency [6],Potency [7],Potency [8],Potency [9],Potency (7G8),Potency (3D7),Potency [10]
CN(c1nccc(=O)[nH]1)C1CCN(c2nc3ccccc3n2Cc2ccc(F)cc2)CC1,active: 23.5 µM,active: 16.6 µM,"inconclusive: 33.2 µM [cytotoxic, single point]","inconclusive: 20.9 µM [cytotoxic, partial curve]",inactive,"inconclusive: 1.18 µM [cytotoxic, partial curve, poor fit]","inconclusive: 18.7 µM [falling, partial curve, poor fit]",,,,,
Oc1ccc([C@@H]2Oc3ccc(O)cc3[C@@H]3CCC[C@@H]32)cc1,"inconclusive: 3.72 µM [cytotoxic, partial curve, poor fit]","inconclusive: 5.9 µM [cytotoxic, full curve, poor fit]","inconclusive: 9.35 µM [cytotoxic, partial curve]","inconclusive: 7.43 µM [cytotoxic, partial curve]","inconclusive: 18.7 µM [cytotoxic, partial curve]",,inconclusive: 23.5 µM [single point],,,,,
COc1ccc2[nH]cc(CCNC(C)=O)c2c1,inactive,"inconclusive: 4.18 µM [rising, full curve, poor fit]",inactive,"inconclusive: 8.33 µM [cytotoxic, partial curve, poor fit]",,,inconclusive: 0.0209 µM,"inconclusive: 26.4 µM [cytotoxic, single point]",inactive,,,
CC(C)(Oc1ccc(C2CC2(Cl)Cl)cc1)C(=O)O (centres undefined),"inconclusive: 48.1 µM [cytotoxic, single point]",inactive,inactive,"inconclusive: 19.1 µM [cytotoxic, partial curve, poor fit]",,,"inconclusive: 7.62 µM [falling, full curve]",inactive,inactive,"inconclusive: 17.8 µM [inhibitor, single point]",,
Nc1ncn([C@H]2C[C@H](O)[C@@H](CO)O2)c(=O)n1,inactive,"inconclusive: 0.0059 µM [cytotoxic, full curve, poor fit]","inconclusive: 2.64 µM [cytotoxic, partial curve, poor fit]","inconclusive: 0.662 µM [cytotoxic, partial curve, poor fit]",inactive,,"inconclusive: 0.662 µM [falling, partial curve, poor fit]",,,,,
COc1nc(C)nc(Cl)c1NC1=NCCN1,"inconclusive: 20.9 µM [cytotoxic, partial curve]","inconclusive: 3.72 µM [cytotoxic, full curve, poor fit]","inconclusive: 8.33 µM [cytotoxic, full curve]","inconclusive: 18.7 µM [cytotoxic, partial curve]","inconclusive: 0.105 µM [rising, full curve, poor fit]",inactive,,,,,,
CN(C)CCC=C1c2ccccc2C=Cc2ccccc21,"inconclusive: 8.33 µM [cytotoxic, partial curve, poor fit]","inconclusive: 0.0033 µM [rising, full curve, poor fit]",inactive,"inconclusive: 0.0372 µM [rising, full curve, poor fit]",,,"inconclusive: 13.2 µM [falling, partial curve, poor fit]",inactive,"inconclusive: 14.8 µM [cytotoxic, partial curve]",,inactive,
S=P(N1CC1)(N1CC1)N1CC1,"inconclusive: 23.5 µM [cytotoxic, partial curve, poor fit]","inconclusive: 13.2 µM [cytotoxic, partial curve, poor fit]",inactive,inactive,inactive,,inconclusive: 14.8 µM,,,,,
O=C(O)c1cn(C2CC2)c2cc(N3CCNCC3)c(F)cc2c1=O,inactive,inconclusive: 0.001 µM,inactive,inactive,inactive,,,,,,,"inconclusive: 10 µM [inhibitor, single point] [parasite line A]"
N[C@@H](Cc1ccc(O)c(O)c1)C(=O)O,"inconclusive: 0.0026 µM [rising, full curve, poor fit]","inconclusive: 2.35 µM [rising, partial curve, poor fit]","inconclusive: 0.0209 µM [rising, full curve]","inconclusive: 0.0012 µM [rising, full curve, poor fit]",,inactive,,"inconclusive: 29.6 µM [cytotoxic, single point]","inconclusive: 0.59 µM [rising, partial curve, poor fit]",,,
COc1cc2nccc(Oc3ccc(NC(=O)Nc4cc(C)on4)c(Cl)c3)c2cc1OC,"inconclusive: 16.6 µM [cytotoxic, partial curve, poor fit]","inconclusive: 2.64 µM [cytotoxic, full curve, poor fit]","inconclusive: 23.5 µM [cytotoxic, partial curve, poor fit]","inconclusive: 4.69 µM [cytotoxic, partial curve]",,"inconclusive: 33.2 µM [cytotoxic, single point]","inconclusive: 14.8 µM [falling, partial curve]","inconclusive: 20.9 µM [cytotoxic, single point]",,,,
CC(=O)N1CCN(c2ccc(OC[C@H]3CO[C@](Cn4ccnc4)(c4ccc(Cl)cc4Cl)O3)cc2)CC1,active: 11.8 µM,inactive,active: 14.8 µM,"inconclusive: 14.8 µM [cytotoxic, partial curve]","inconclusive: 7.43 µM [cytotoxic, partial curve, poor fit]","inconclusive: 14.8 µM [cytotoxic, partial curve, poor fit]",inconclusive: 23.5 µM [partial curve],,,,,
Nc1ccn(C2CO[C@H](CO)O2)c(=O)n1 (some centres undefined),"inconclusive: 0.105 µM [rising, full curve, poor fit]","inconclusive: 37.2 µM [cytotoxic, single point]",inactive,inactive,inactive,inactive,,,inactive,,,
C=C[C@@H]1CN2CCC1C[C@H]2[C@H](O)c1ccnc2ccc(OC)cc12 (some centres undefined),"inconclusive: 37.2 µM [cytotoxic, single point]","inconclusive: 2.96 µM [rising, partial curve, poor fit]","inconclusive: 37.2 µM [cytotoxic, single point]","inconclusive: 5.26 µM [cytotoxic, partial curve, poor fit]",inactive,inactive,,,"inconclusive: 18.7 µM [cytotoxic, partial curve, poor fit]",,,
CN(C)CCCNC(=O)c1ccc(-c2cc(O)c3ncccc3c2)cc1,"inconclusive: 0.0372 µM [rising, full curve, poor fit]","inconclusive: 0.0026 µM [cytotoxic, full curve, poor fit]","inconclusive: 26.4 µM [cytotoxic, single point]",inactive,,"inconclusive: 26.4 µM [cytotoxic, single point]","inconclusive: 18.7 µM [falling, partial curve, poor fit]","inconclusive: 10.5 µM [cytotoxic, partial curve, poor fit]",,,,
CC(C)(N)C(=O)N[C@H](COCc1ccccc1)C(=O)N1CCC2(CC1)CN(S(C)(=O)=O)c1ccccc12,"inconclusive: 20.9 µM [cytotoxic, partial curve, poor fit]","inconclusive: 23.5 µM [cytotoxic, single point]","inconclusive: 20.9 µM [cytotoxic, single point]","inconclusive: 18.7 µM [cytotoxic, partial curve, poor fit]","inconclusive: 29.6 µM [cytotoxic, partial curve, poor fit]","inconclusive: 37.2 µM [cytotoxic, single point]","inconclusive: 18.7 µM [falling, partial curve]",,"inconclusive: 18.7 µM [cytotoxic, partial curve]",,,
C[C@]12C=CC(=O)C=C1CC[C@@H]1[C@@H]2C(=O)C[C@@]2(C)[C@H]1CC[C@]2(O)C(=O)CO,inactive,"inconclusive: 2.29 µM [cytotoxic, partial curve, poor fit]","inconclusive: 0.162 µM [cytotoxic, full curve, poor fit]",inactive,,,,inconclusive: 0.0006 µM [cytotoxic],,,inactive,
CNC(=O)c1ccc(N2C(=S)N(c3ccc(C#N)c(C(F)(F)F)c3)C(=O)C2(C)C)cc1F,"inconclusive: 23.5 µM [cytotoxic, partial curve, poor fit]","inconclusive: 2.96 µM [rising, partial curve, poor fit]",inactive,"inconclusive: 3.72 µM [cytotoxic, full curve, poor fit]",inactive,,"inconclusive: 11.8 µM [falling, partial curve]",,"inconclusive: 37.2 µM [cytotoxic, single point]",,,
CNC[C@@H](O)[C@@H](O)[C@H](O)[C@H](O)CO,"inconclusive: 5.26 µM [rising, partial curve]","inconclusive: 0.003 µM [cytotoxic, full curve, poor fit]","inconclusive: 0.0418 µM [rising, full curve, poor fit]",,inactive,inactive,,,"inconclusive: 13.2 µM [rising, partial curve]",,,

# A draw from above in order of formula weight, rising:
SMILES,Potency [1],Potency [2],Potency [3],Potency [4],Potency [5],Potency [6],Potency [7],Potency [8],Potency [9],Potency (7G8),Potency (3D7),Potency [10]
COc1ccc2[nH]cc(CCNC(C)=O)c2c1,inactive,"inconclusive: 4.18 µM [rising, full curve, poor fit]",inactive,"inconclusive: 8.33 µM [cytotoxic, partial curve, poor fit]",,,inconclusive: 0.0209 µM,"inconclusive: 26.4 µM [cytotoxic, single point]",inactive,,,
CN(C)CCCNC(=O)c1ccc(-c2cc(O)c3ncccc3c2)cc1,"inconclusive: 0.0372 µM [rising, full curve, poor fit]","inconclusive: 0.0026 µM [cytotoxic, full curve, poor fit]","inconclusive: 26.4 µM [cytotoxic, single point]",inactive,,"inconclusive: 26.4 µM [cytotoxic, single point]","inconclusive: 18.7 µM [falling, partial curve, poor fit]","inconclusive: 10.5 µM [cytotoxic, partial curve, poor fit]",,,,
CNC(=O)c1ccc(N2C(=S)N(c3ccc(C#N)c(C(F)(F)F)c3)C(=O)C2(C)C)cc1F,"inconclusive: 23.5 µM [cytotoxic, partial curve, poor fit]","inconclusive: 2.96 µM [rising, partial curve, poor fit]",inactive,"inconclusive: 3.72 µM [cytotoxic, full curve, poor fit]",inactive,,"inconclusive: 11.8 µM [falling, partial curve]",,"inconclusive: 37.2 µM [cytotoxic, single point]",,,

# — PubChem BioAssay (NCATS)
